Reference: paper PMC11589570, “Critical assessment of LC3/GABARAP ligands used for degrader development and ligandability of LC3/GABARAP binding pockets” (Nature Communications, 2024)
Values joined by “and” are separate entries in the source; they are usually repeats but may differ in a detail not shown here. Identical values can stand only once. Further values from the same series stand in other lists.

System: RPE1 cells
Experiment: Cell growth assay (IncuCyte confluence over 72 h)
Assay type: cell-based
Summary of the method: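 Phase confluence (% area covered by cells) imaged every 2 h for 72 h after compound addition; cells in DMEM/10% FBS, seeded 24 h before treatment. Controls were 0.1% DMSO, 250 nM Torin1 and 200 ng/mL Bafilomycin (final). Each point averages three wells.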

O=c1cc(-c2ccccc2)c2c(O)cc(O)cc2o1 [compound 2]
RPE1 cell growth (100 nM, 10 h, listed as AN2): 21
RPE1 cell growth (100 nM, 16 h, listed as AN2): 40 and 20 and 26
RPE1 cell growth (100 nM, 22 h, listed as AN2): 47 and 24 and 30
RPE1 cell growth (100 nM, 36 h, listed as AN2): 81 and 42 and 49
RPE1 cell growth (100 nM, 38 h, listed as AN2): 85 and 46 and 52
RPE1 cell growth (100 nM, 40 h, listed as AN2): 87 and 48 and 55
RPE1 cell growth (100 nM, 44 h, listed as AN2): 93 and 57 and 63
RPE1 cell growth (100 nM, 46 h, listed as AN2): 96 and 61 and 68
RPE1 cell growth (100 nM, 48 h, listed as AN2): 97 and 64 and 73
RPE1 cell growth (100 nM, 50 h, listed as AN2): 98 and 69 and 76
RPE1 cell growth (100 nM, 52 h, listed as AN2): 99 and 74 and 79
RPE1 cell growth (100 nM, 54 h, listed as AN2): 99 and 79 and 85
RPE1 cell growth (100 nM, 56 h, listed as AN2): 100 and 81 and 82
RPE1 cell growth (100 nM, 58 h, listed as AN2): 100 and 86 and 91
RPE1 cell growth (100 nM, 60 h, listed as AN2): 100 and 91 and 94
RPE1 cell growth (100 nM, 62 h, listed as AN2): 100 and 94 and 96
RPE1 cell growth (100 nM, 64 h, listed as AN2): 100 and 96 and 97
RPE1 cell growth (100 nM, 66 h, listed as AN2): 100 and 98 and 99
RPE1 cell growth (100 nM, 68 h, listed as AN2): 100 and 99
RPE1 cell growth (100 nM, 70 h, listed as AN2): 100 and 99
RPE1 cell growth (100 nM, 72 h, listed as AN2): 100 and 99
RPE1 cell growth (500 nM, 10 h, listed as AN2): 36 and 22 and 26
RPE1 cell growth (500 nM, 12 h, listed as AN2): 39 and 24 and 27
RPE1 cell growth (500 nM, 14 h, listed as AN2): 41 and 26 and 29
RPE1 cell growth (500 nM, 16 h, listed as AN2): 42 and 27 and 30
RPE1 cell growth (500 nM, 18 h, listed as AN2): 46 and 28 and 31
RPE1 cell growth (500 nM, 20 h, listed as AN2): 46 and 29 and 35
RPE1 cell growth (500 nM, 22 h, listed as AN2): 50 and 32 and 37
RPE1 cell growth (500 nM, 24 h, listed as AN2): 58 and 34 and 39
RPE1 cell growth (500 nM, 26 h, listed as AN2): 60 and 38 and 42
RPE1 cell growth (500 nM, 28 h, listed as AN2): 65 and 39 and 43
RPE1 cell growth (500 nM, 30 h, listed as AN2): 71 and 43 and 47
RPE1 cell growth (500 nM, 32 h, listed as AN2): 75 and 47 and 50
RPE1 cell growth (500 nM, 34 h, listed as AN2): 78 and 50 and 55
RPE1 cell growth (500 nM, 36 h, listed as AN2): 80 and 52 and 58
RPE1 cell growth (500 nM, 38 h, listed as AN2): 85 and 56 and 62
RPE1 cell growth (500 nM, 40 h, listed as AN2): 88 and 60 and 65
RPE1 cell growth (500 nM, 42 h, listed as AN2): 90 and 63 and 68
RPE1 cell growth (500 nM, 44 h, listed as AN2): 93 and 71 and 73
RPE1 cell growth (500 nM, 46 h, listed as AN2): 95 and 73 and 78
RPE1 cell growth (500 nM, 48 h, listed as AN2): 97 and 78 and 82
RPE1 cell growth (500 nM, 50 h, listed as AN2): 98 and 83 and 85
RPE1 cell growth (500 nM, 52 h, listed as AN2): 99 and 88
RPE1 cell growth (500 nM, 54 h, listed as AN2): 99 and 92
RPE1 cell growth (500 nM, 56 h, listed as AN2): 100 and 94 and 91
RPE1 cell growth (500 nM, 58 h, listed as AN2): 100 and 96
RPE1 cell growth (500 nM, 60 h, listed as AN2): 100 and 98 and 97
RPE1 cell growth (500 nM, 62 h, listed as AN2): 100 and 99
RPE1 cell growth (500 nM, 64 h, listed as AN2): 100 and 99
RPE1 cell growth (500 nM, 66 h, listed as AN2): 100 and 99
RPE1 cell growth (500 nM, 68 h): 100
RPE1 cell growth (500 nM, 70 h): 100
RPE1 cell growth (500 nM, 72 h): 100
RPE1 cell growth (1 uM, 10 h, listed as AN2): 35 and 28
RPE1 cell growth (1 uM, 12 h, listed as AN2): 26 and 38 and 30
RPE1 cell growth (1 uM, 14 h, listed as AN2): 28 and 41 and 31
RPE1 cell growth (1 uM, 16 h, listed as AN2): 30 and 42 and 35
RPE1 cell growth (1 uM, 18 h, listed as AN2): 31 and 45 and 36
RPE1 cell growth (1 uM, 20 h, listed as AN2): 33 and 45 and 36
RPE1 cell growth (1 uM, 22 h, listed as AN2): 35 and 48 and 41
RPE1 cell growth (1 uM, 24 h, listed as AN2): 37 and 56 and 44
RPE1 cell growth (1 uM, 26 h, listed as AN2): 40 and 58 and 47
RPE1 cell growth (1 uM, 28 h, listed as AN2): 41 and 63 and 48
RPE1 cell growth (1 uM, 30 h, listed as AN2): 45 and 69 and 52
RPE1 cell growth (1 uM, 32 h, listed as AN2): 50 and 73 and 56
RPE1 cell growth (1 uM, 34 h, listed as AN2): 53 and 78 and 60
RPE1 cell growth (1 uM, 36 h, listed as AN2): 58 and 80 and 63
RPE1 cell growth (1 uM, 38 h, listed as AN2): 61 and 83 and 68
RPE1 cell growth (1 uM, 40 h, listed as AN2): 65 and 87 and 72
RPE1 cell growth (1 uM, 42 h, listed as AN2): 70 and 89 and 75
RPE1 cell growth (1 uM, 44 h, listed as AN2): 74 and 93 and 81
RPE1 cell growth (1 uM, 46 h, listed as AN2): 79 and 94 and 84
RPE1 cell growth (1 uM, 48 h, listed as AN2): 83 and 97 and 88
RPE1 cell growth (1 uM, 50 h, listed as AN2): 87 and 97 and 91
RPE1 cell growth (1 uM, 52 h, listed as AN2): 89 and 98 and 95
RPE1 cell growth (1 uM, 54 h, listed as AN2): 93 and 99 and 97
RPE1 cell growth (1 uM, 56 h, listed as AN2): 96 and 99 and 98
RPE1 cell growth (1 uM, 58 h, listed as AN2): 97 and 100 and 99
RPE1 cell growth (1 uM, 60 h, listed as AN2): 98 and 100
RPE1 cell growth (1 uM, 62 h, listed as AN2): 99 and 100
RPE1 cell growth (1 uM, 64 h, listed as AN2): 99 and 100
RPE1 cell growth (1 uM, 66 h, listed as AN2): 99 and 100
RPE1 cell growth (1 uM, 68 h): 100
RPE1 cell growth (1 uM, 70 h): 100
RPE1 cell growth (1 uM, 72 h): 100
RPE1 cell growth (3 uM, 12 h, listed as AN2): 42 and 29 and 30
RPE1 cell growth (3 uM, 14 h, listed as AN2): 45 and 29 and 32
RPE1 cell growth (3 uM, 16 h, listed as AN2): 48 and 32 and 35
RPE1 cell growth (3 uM, 18 h, listed as AN2): 51 and 33 and 36
